The first data set in a line: general procedure: Fmoc solid-phase peptide synthesis; 2-chlorotrityl resin (Chempep, 0.81 mmol/g). The note with it: conjugation step.
In the case of “Benzyl ((7R,10aS,22aS,29R,32aS,44aS)-29-(3-(benzyloxy)quinoline-2-carboxamido)-18,40-dimethyl-6,10,16,19,22,28,32,38,41,44-decaoxotetratetracontahydrotetrapyrido[1,2-a:1′,2′-j:1″,2″-q:1′″,2′″-z][1,4,7,10,13,17,20,23,26,29]decaazacyclodotriacontin-7-yl)carbamate (Compound 238)”, the conjugation yield amounted to 83%.

Still in this data set, the particulars now being: cyclisation step.
Regarding “Benzyl N-[(3R,7S,20S,27R,31S,44S)-27-[(tert-butoxycarbonyl)amino]-15,39-dimethyl-2,6,13,16,19,26,30,37,40,43-decaoxo-1,5,12,15,18,25,29,36,39,42-decaazapentacyclo[42.4.0.0^7,12.0^20,25.0^31,36]octatetracontan-3-yl]carbamate”, the cyclisation yield came to 40%.

The substance “Benzyl tert-butyl ((7R,8R,11S,19aS,26R,30S,38aS)-11,30-di((S)-sec-butyl)-8,12,15,31,34-pentamethyl-6,10,13,16,19,25,29,32,35,38-decaoxotetratriacontahydro-2H,6H,10H-dipyrido[2,1-b1: 2′,1′-l][1]oxa[4,7,10,13,17,20,23,26,29]nonaazacyclodotriacontine-7,26-diyl)dicarbamate” displayed a cyclisation yield of 71% yield.

The substance “Benzyl tert-butyl ((7R,10aS,22aS,29R,32aS,44aS)-6,10,16,22,28,32,38,44-octaoxotetracontahydro-2H,19H-tetrapyrido[1,2-a1: 1′,2′-d: 1″,2″-k: 1′″,2′″-t][1,17]dioxa[4,7,11,14,20,23,27,30]octaazacyclodotriacontine-7,29-diyl)dicarbamate” gave a cyclisation yield of 44% yield.

Substance “Benzyl tert-butyl ((7R,11S,19aS,26R,30S,38aS)-11,30-diisopropyl-12,15,31,34-tetramethyl-6,10,13,16,19,25,29,32,35,38-decaoxotetratriacontahydro-2H,6H,10H-dipyrido[2,1-b1: 2′,1′-l][1]oxa[4,7,10,13,17,20,23,26,29]nonaazacyclodotriacontine-7,26-diyl)dicarbamate” showed a cyclisation yield of 63% yield.

Regarding “Di-tert-butyl ((7R,8R,11S,19aS,26R,27R,30S,38aS)-11,30-diisopropyl-8,12,15,27,31,34-hexamethyl-6,10,13,16,19,25,29,32,35,38-decaoxodotriacontahydro-2H,6H,10H,25H-dipyrido[2,1-b1: 2′,1′-l][1,17]dioxa[4,7,10,13,20,23,26,29]octaazacyclodotriacontine-7,26-diyl)dicarbamate”, the cyclisation yield was found to be 50% yield.

As for “Dibenzyl ((7R,11S,19aS,26R,30S,38aS)-11-((R)-1-(tert-butoxy)ethyl)-30-isopropyl-12,15,31,34-tetramethyl-6,10,13,16,19,25,29,32,35,38-decaoxohexatriacontahydro-2H,6H-dipyrido[1,2-a:1′,2′-q][1,4,7,10,13,17,20,23,26,29]decaazacyclodotriacontine-7,26-diyl)dicarbamate”, the cyclisation yield is 91% yield.

Still in this data set, the particulars now being: late stage modification step.
In turn, “N,N′-((7R,8R,11S,19aS,26R,27R,30S,38aS)-11,30-diisopropyl-8,12,15,27,31,34-hexamethyl-6,10,13,16,19,25,29,32,35,38-decaoxodotriacontahydro-2H,6H,10H,25H-dipyrido[2,1-b1: 2′,1′-l][1,17]dioxa[4,7,10,13,20,23,26,29]octaazacyclodotriacontine-7,26-diyl)bis(3-(benzyloxy)quinoline-2-carboxamide)” registered a step yield of 100% yield.

Regarding “N,N′-((7R,8R,11S,19aS,26R,27R,30S,38aS)-11,30-diisopropyl-8,12,15,27,31,34-hexamethyl-6,10,13,16,19,25,29,32,35,38-decaoxodotriacontahydro-2H,6H,10H,25H-dipyrido[2,1-b1: 2′,1′-l][1,17]dioxa[4,7,10,13,20,23,26,29]octaazacyclodotriacontine-7,26-diyl)bis(3-hydroxyquinoline-2-carboxamide)”, the step yield is 70% yield.

“N,N′-((7R,8R,11S,19aS,26R,30S,38aS)-11,30-di((S)-sec-butyl)-8,12,15,31,34-pentamethyl-6,10,13,16,19,25,29,32,35,38-decaoxotetratriacontahydro-2H,6H,10H-dipyrido[2,1-b1: 2′,1′-l][1]oxa[4,7,10,13,17,20,23,26,29]nonaazacyclodotriacontine-7,26-diyl)bis(3-(benzyloxy)quinoline-2-carboxamide)” gave a step yield of 23% yield.

In turn, “N,N′-((7R,8R,11S,19aS,26R,30S,38aS)-11,30-di((S)-sec-butyl)-8,12,15,31,34-pentamethyl-6,10,13,16,19,25,29,32,35,38-decaoxotetratriacontahydro-2H,6H,10H-dipyrido[2,1-b1: 2′,1′-l][1]oxa[4,7,10,13,17,20,23,26,29]nonaazacyclodotriacontine-7,26-diyl)bis(3-hydroxyquinoline-2-carboxamide)” registered a step yield of 66% yield.

With “N,N′-((7R,10aS,22aS,29R,32aS,44aS)-6,10,16,22,28,32,38,44-octaoxotetracontahydro-2H,19H-tetrapyrido[1,2-a1: 1′,2′-d: 1″,2″-k: 1′″,2′″-t][1,17]dioxa[4,7,11,14,20,23,27,30]octaazacyclodotriacontine-7,29-diyl)bis(3-hydroxyquinoline-2-carboxamide)”, the step yield was 62% yield.

“N,N′-((7R,11S,19aS,26R,30S,38aS)-11,30-di((S)-sec-butyl)-12,15,31,34-tetramethyl-6,10,13,16,19,25,29,32,35,38-decaoxohexatriacontahydro-2H,6H-dipyrido[1,2-a:1′,2′-q][1,4,7,10,13,17,20,23,26,29]decaazacyclodotriacontine-7,26-diyl)bis(6-bromo-3-hydroxyquinoline-2-carboxamide)” gave a step yield of 54%.

Consider “N,N′-((7R,11S,19aS,26R,30S,38aS)-11,30-dicyclohexyl-12,15,31,34-tetramethyl-6,10,13,16,19,25,29,32,35,38-decaoxohexatriacontahydro-2H,6H-dipyrido[1,2-a:1′,2′-q][1,4,7,10,13,17,20,23,26,29]decaazacyclodotriacontine-7,26-diyl)bis(3-hydroxyquinoline-2-carboxamide)”, for which the step yield was determined as 15% yield.

“N,N′-((7R,11S,19aS,26R,30S,38aS)-11,30-diisopropyl-9,12,15,28,31,34-hexamethyl-6,10,13,16,19,25,29,32,35,38-decaoxohexatriacontahydro-2H,6H-dipyrido[1,2-a:1′,2′-q][1,4,7,10,13,17,20,23,26,29]decaazacyclodotriacontine-7,26-diyl)bis(3-(benzyloxy)quinoline-2-carboxamide)” returned a step yield of 100% yield.

In turn, “N,N′-((7R,11S,19aS,26R,30S,38aS)-11,30-diisopropyl-9,12,15,28,31,34-hexamethyl-6,10,13,16,19,25,29,32,35,38-decaoxohexatriacontahydro-2H,6H-dipyrido[1,2-a:1′,2′-q][1,4,7,10,13,17,20,23,26,29]decaazacyclodotriacontine-7,26-diyl)bis(3-hydroxyquinoline-2-carboxamide)” displayed a step yield of 69% yield.

Take “N,N′-((7R,11S,19aS,26R,30S,38aS)-11,30-diisopropyl-12,15,31,34-tetramethyl-6,10,13,16,19,25,29,32,35,38-decaoxohexatriacontahydro-2H,6H-dipyrido[1,2-a:1′,2′-q][1,4,7,10,13,17,20,23,26,29]decaazacyclodotriacontine-7,26-diyl)bis(3-hydroxyquinoline-2-carboxamide)”: the step yield worked out at 86% yield.

As to “N,N′-((7R,11S,19aS,26R,30S,38aS)-11,30-diisopropyl-12,15,31,34-tetramethyl-6,10,13,16,19,25,29,32,35,38-decaoxotetratriacontahydro-2H,6H,10H-dipyrido[2,1-b1: 2′,1′-l][1]oxa[4,7,10,13,17,20,23,26,29]nonaazacyclodotriacontine-7,26-diyl)bis(3-(benzyloxy)quinoline-2-carboxamide)”, the step yield is reported as 47% yield.

As for “N,N′-((7R,11S,19aS,26R,30S,38aS)-11,30-diisopropyl-12,15,31,34-tetramethyl-6,10,13,16,19,25,29,32,35,38-decaoxotetratriacontahydro-2H,6H,10H-dipyrido[2,1-b1: 2′,1′-l][1]oxa[4,7,10,13,17,20,23,26,29]nonaazacyclodotriacontine-7,26-diyl)bis(3-hydroxyquinoline-2-carboxamide)”, the step yield amounted to 57% yield.

Take “N,N′-((7R,11S,19aS,26R,30S,38aS)-11,30-diisopropyl-12,31-dimethyl-6,10,13,16,19,25,29,32,35,38-decaoxo-15,34-dipropylhexatriacontahydro-2H,6H-dipyrido[1,2-a:1′,2′-q][1,4,7,10,13,17,20,23,26,29]decaazacyclodotriacontine-7,26-diyl)bis(3-hydroxyquinoline-2-carboxamide)”: the step yield is 36% yield.

The same data set, now with this note: late stage modification step, 2 steps (Boc removal + chromophore coupling).
“N,N′-((7R,11S,19aS,26R,30S,38aS)-11,30-diisopropyl-12,15,31,34-tetramethyl-6,10,13,16,19,25,29,32,35,38-decaoxohexatriacontahydro-2H,6H-dipyrido[1,2-a:1′,2′-q][1,4,7,10,13,17,20,23,26,29]decaazacyclodotriacontine-7,26-diyl)bis(3-(benzyloxy)quinoline-2-carboxamide)”: the step yield is 82% yield, 2 steps.

The data set is the same for the next values; noted with them: whole synthesis, scale 0.4 mmol.
Substance “(S)-1-(O—(N—(N—(((S)-1-((R)-3-((S)-2-(2-(2-amino-N-methylacetamido)-N-methylacetamido)-3-methylbutanamido)-2-(((benzyloxy)carbonyl) amino)propanoyl)piperidine-2-carbonyl)glycyl)-N-methylglycyl)-N-methyl-L-valyl)-N-(tert-butoxycarbonyl)-D-seryl) piperidine-2-carboxylic acid” registered a crude mass of 320 mg and a crude yield of 71% yield.

Values taken from patent US20240376154A1 (ZYMEWORKS BC INC., priority 2023, published 2024).
